PubChem BioAssay AID652243 | Drosophila RNAi Screening Center | 2013
The screen tested about 24,000 reagents; shown is a random part of those with a known target gene and a result. Of all reagents, 246 (1%) were called active. 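Plates not normalised; calls are printed but the firefly/Renilla ratio behind them is not deposited; fold cut for lowering reported inconsistently.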 Raw values vary from plate to plate and are shown uncorrected. Names joined by + are all predicted targets of the reagent. No sequences are given here. The record does not give: the amount of reagent.

Test: 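Fly genes required for human androgen receptor driven transcription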 (primary screen)
Cells: Drosophila S2R+ cells
Knock-down reagent: long dsRNA against Drosophila genes
Duration: 72 h (48 h, then 24 h hormone)
Challenge: synthetic androgen R1881 at 10 nM for 24 h
Detection: 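Firefly light from an androgen-responsive reporter and Renilla control light per well, raw and unnormalised, for each of two replicates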
Direction: firefly reporter light: higher = more light from androgen-responsive reporter; Renilla control light: higher = more constitutive control signal (cell number, transfection)
Call rule: 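Hit when the log firefly-to-Renilla ratio dropped or increased by a fixed fold versus the mean of GFP or LacZ controls across duplicate plates; lowering cut given as 1.5 and as 3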
Calls: active = hit: reporter lowered or raised; inactive = no hit

predicted target,DRSC id,"firefly reporter light, replicate 1","firefly reporter light, replicate 2","Renilla control light, replicate 1","Renilla control light, replicate 2",activity call
Pde1c (Phosphodiesterase 1c),DRSC02421,2.44e5,2.76e5,1.94e6,1.88e6,inactive
Pde1c (Phosphodiesterase 1c),DRSC02422,1.88e5,2.32e5,1.45e6,1.78e6,inactive
Pde1c (Phosphodiesterase 1c),DRSC02423,1.40e5,1.49e5,1.29e6,1.19e6,inactive
Pde1c (Phosphodiesterase 1c),DRSC02424,2.78e5,2.35e5,1.78e6,2.12e6,inactive
Pde1c (Phosphodiesterase 1c),DRSC02425,1.60e5,1.92e5,1.23e6,1.14e6,inactive
Pde1c (Phosphodiesterase 1c),DRSC02426,2.26e5,2.75e5,1.34e6,1.47e6,inactive
Pde1c (Phosphodiesterase 1c),DRSC28161,2.94e5,3.58e5,9.18e5,6.70e5,inactive
Cpr49Ac (Cuticular protein 49Ac),DRSC07199,8.24e5,6.21e5,2.46e6,1.96e6,inactive
RpL27A (Ribosomal protein L27A),DRSC00781,1.05e5,1.25e5,7.99e5,1.05e6,inactive
RpL27A (Ribosomal protein L27A),DRSC28466,1.75e5,3.50e5,4.13e5,6.44e5,inactive
Tsf1 (Transferrin 1),DRSC20296,6.72e5,5.69e5,3.91e6,3.65e6,inactive
Tsf1 (Transferrin 1),DRSC28246,3.06e5,5.86e5,7.23e5,1.67e6,inactive
Gapdh2 (Glyceraldehyde 3 phosphate dehydrogenase 2),DRSC20246,4.46e5,5.07e5,3.09e6,2.42e6,inactive
Gapdh2 (Glyceraldehyde 3 phosphate dehydrogenase 2),DRSC24596,4.70e5,4.18e5,4.29e5,4.75e5,inactive
CPT2 (Carnitine palmitoyltransferase 2),DRSC08553,7.44e5,8.19e5,6.67e5,7.85e5,inactive
CG9164,DRSC19087,4.38e5,4.48e5,8.25e5,6.10e5,inactive
CG9164,DRSC20162,1.29e5,1.23e5,7.54e5,7.95e5,inactive
CG9164,DRSC23596,1.08e6,1.23e6,1.41e6,1.39e6,inactive
CG11342,DRSC08175,1.10e5,1.17e5,1.15e6,1.92e6,inactive
CG11342,DRSC26281,2.74e5,2.60e5,4.45e5,3.88e5,inactive
mRpL1 (mitochondrial ribosomal protein L1),DRSC16251,733,621,,,inactive
Eglp4 (Entomoglyceroporin 4),DRSC04438,2.88e5,2.54e5,1.81e6,1.99e6,inactive
Eglp4 (Entomoglyceroporin 4),DRSC25991,3.06e5,4.05e5,9.22e5,8.18e5,inactive
CG30324,DRSC22655,8.60e5,7.72e5,1.28e6,1.35e6,inactive
CG30324,DRSC26815,2.46e5,2.01e5,4.68e5,3.15e5,inactive
CG31161,DRSC16144,1.38e5,88640,2.77e6,1.81e6,inactive
CG31161,DRSC25099,6.43e5,7.40e5,7.58e5,7.66e5,inactive
Cht8 (Chitinase 8),DRSC04546,3.02e5,2.35e5,1.69e6,1.25e6,inactive
CG13056,DRSC09937,2.66e5,2.30e5,2.93e6,1.79e6,inactive
CG13056,DRSC29419,6.53e5,7.65e5,1.56e6,1.56e6,inactive
Bdbt (Bride of doubletime),DRSC15218,1.62e5,1.95e5,3.32e6,4.03e6,inactive
Mco3 (Multicopper oxidase 3),DRSC15926,2.25e5,2.88e5,3.33e6,3.29e6,inactive
kek2 (kekkon 2),DRSC03552,2.30e5,2.79e5,1.89e6,2.43e6,inactive
kek2 (kekkon 2),DRSC26189,2.90e5,3.23e5,4.23e5,3.77e5,inactive
RYBP (Ring and YY1 Binding Protein),DRSC04117,1.35e6,7.82e5,2.08e6,1.50e6,inactive
RYBP (Ring and YY1 Binding Protein),DRSC27464,2.84e5,2.84e5,8.37e5,8.80e5,inactive

Continued; the last 2 above are carried over.
predicted target,DRSC id,"firefly reporter light, replicate 1","firefly reporter light, replicate 2","Renilla control light, replicate 1","Renilla control light, replicate 2",activity call
RYBP (Ring and YY1 Binding Protein),DRSC04117,1.35e6,7.82e5,2.08e6,1.50e6,inactive
RYBP (Ring and YY1 Binding Protein),DRSC27464,2.84e5,2.84e5,8.37e5,8.80e5,inactive
Adar (Adenosine deaminase acting on RNA),DRSC17725,4.51e5,6.41e5,4.53e6,3.82e6,inactive
CG13965,DRSC02307,1.67e5,1.12e5,1.05e6,1.34e6,inactive
Roc1a (Regulator of cullins 1a),DRSC18483,3.57e5,3.65e5,3.26e6,2.96e6,inactive
CtsB (Cathepsin B),DRSC19361,74773,83889,5.16e5,5.22e5,inactive
Frl (Formin-like),DRSC09300,2.59e5,2.04e5,7.84e5,7.48e5,inactive
Frl (Formin-like),DRSC10027,2.00e5,1.75e5,2.04e6,1.80e6,inactive
Frl (Formin-like),DRSC10716,2.46e5,2.35e5,1.41e6,1.30e6,inactive
Frl (Formin-like),DRSC28783,3.99e5,4.00e5,1.42e6,1.39e6,inactive
sws (swiss cheese),DRSC18843,3.23e5,3.53e5,3.04e6,2.24e6,inactive
Cyp6a19 (Cytochrome P450 6a19),DRSC07379,1.33e6,1.12e6,2.31e6,2.09e6,inactive
kirre (kin of irre),DRSC18785,4.16e5,4.98e5,4.38e6,4.48e6,inactive
kirre (kin of irre),DRSC24733,4.27e5,4.54e5,4.07e5,4.70e5,inactive
Irc (Immune-regulated catalase),DRSC16454,52096,75060,2.84e5,4.06e5,inactive
Irc (Immune-regulated catalase),DRSC28100,4.40e5,4.47e5,1.30e6,1.28e6,inactive
RabX4,DRSC22189,5.56e5,5.27e5,2.02e6,1.10e6,inactive
RabX4,DRSC26360,3.24e5,2.49e5,6.87e5,7.04e5,inactive
bdl (borderless),DRSC00271,6.72e5,9.65e5,1.72e6,1.37e6,inactive
MED23 + CG3700,DRSC04406,2.98e5,2.75e5,1.98e6,1.60e6,inactive
MED23 + CG3700,DRSC04407,5.53e5,6.24e5,1.23e6,1.30e6,inactive
MED23 + CG3700,DRSC24669,3.07e5,3.63e5,6.43e5,5.50e5,inactive
MED23 + CG3700,DRSC25453,8.48e5,7.56e5,1.04e6,1.22e6,inactive
CG5033,DRSC07410,1.05e6,1.04e6,2.19e6,1.73e6,inactive
CG5033,DRSC27783,2.61e5,1.73e5,3.48e5,4.76e5,inactive
